Reference: patent publication US7351843B2, “Furancarbonylguanidine derivatives, their preparation and pharmaceutical compositions containing them” (Korea Research Institute of Chemical Technology, priority 2003, dated 2008)
Entries after “also recorded” stand apart in the source; their conditions may differ. Not every entry of the source has a single result; some have several. This list holds those alone. An entry can have further records. Values that stand side by side differ, and nothing given here explains why; they may come from other doses, times, organisms or constructs than stated.

System: ischemic rat heart
Assay: Cardioprotective effect on in vivo ischemic rat heart model (LAD occlusion 45 min / reperfusion 90 min, infarct size)
Details: anesthetized rats

Compound: Cc1ccc(F)cc1-c1ccc(C(=O)NC(=N)N)o1
- Myocardial infarction rate (IS/AAR) (0.1 mg/Kg i.v.): significant myocardial infration limiting effect; also recorded: 43.3%

Compound: Cc1cc(C)cc(-c2ccc(C(=O)N=C(N)N)o2)c1
- Myocardial infarction rate (IS/AAR) (0.1 mg/Kg i.v.): 28.4%; also recorded: significant myocardial infration limiting effect

Compound: COc1ccc(Cl)cc1-c1ccc(C(=O)NC(=N)N)o1
- Myocardial infarction rate (IS/AAR) (0.1 mg/Kg i.v.): 35.4%; also recorded: significant myocardial infration limiting effect

Compound: N=C(N)NC(=O)c1ccc(-c2cccc(F)c2)o1
- Myocardial infarction rate (IS/AAR) (0.3 mg/kg i.v.): better than cariporide and 37.6%
- Myocardial infarction rate (IS/AAR) (1.0 mg/kg i.v.): better than cariporide and 31.8%
- Myocardial infarction rate (IS/AAR) (3.0 mg/kg i.v.): better than cariporide and 25.7%

Compound: COc1ccc(F)cc1-c1ccc(C(=O)N=C(N)N)o1
- Myocardial infarction rate (IS/AAR) (0.1 mg/Kg i.v.): significant myocardial infration limiting effect; also recorded: 42.7%
